Assay results: PubChem BioAssay AID248 (DTP/NCI, 2004)
The list does not hold the whole screen: it is rich in T/C values a quarter to a half above the control, in often repeated tests (any T/C) and in doses without a T/C. Further doses and runs are listed elsewhere. T/C: endpoint of the treated group in % of that of the vehicle group. Some entries give survivors of the animals treated and no T/C: the source files T/C as zero there, which appears to mark a toxic dose or a test without result, not a measured value. Some survivor counts are full or nearly so, which does not show that the dose was tolerated: survival well below the control is almost never listed, so the zero probably covers shortened survival too. Survivors were counted at the toxicity check, usually on the fifth day, unless a day is given; later deaths do not show. Schedules are NCI's codes, taken here to give the interval after Q, in days (D) or hours (H), and the number of doses after X. Some schedule codes hold Z or #, which are not explained here. Some entries were tested several times; the values are given in rising order. For survival time, this PubChem deposit counts one and a half times the control or more as active, and values a quarter to a half above the control carry no call in these data; other NCI protocols may use other cut-offs. Counts like (3×) say how often a value occurs here. Some T/C values carry the count of animals alive at the toxicity check (mostly the fifth day); where none is given, no animal had died by that day.

Test system: L1210 leukemia ip in BDF1 mice, survival T/C
Assay: NCI In Vivo Anticancer Drug Screen. Data for tumor model L1210 Leukemia (intraperitoneal) in B6D2F1 (BDF1) mice
Details: T/C endpoint: mean survival time, vehicle: saline, higher T/C = longer survival
[1] = dose: 134.0 mg/kg/injection, schedule: Q01DX001 (ip)
[2] = dose: 200.0 mg/kg/injection, schedule: Q01DX001 (ip)
[3] = dose: 400.0 mg/kg/injection, schedule: Q01DX001 (ip)

CSc1ncnc2c1ncn2C1OC(CO)C(O)C1O (configuration not stated) was tested. Which T/C (dose: 25.0 mg/kg/injection, schedule: Q01DX009 (ip)) did it give?
Its T/C is 136 % of control.

What about the T/C (dose: 26.0 mg/kg/injection, schedule: Q01DX015 (ip)) of the same compound?
Its T/C is 133 % of control (2×).

What about the T/C (dose: 26.0 mg/kg/injection, schedule: Q07DX003 (ip)) of the same compound?
The T/C was 126 and 131 % of control.

What about the T/C (dose: 27.0 mg/kg/injection, schedule: Q01DX009 (ip), evaluated on day 5) of the same compound?
Its T/C is 158 and 159 % of control.

And the T/C (dose: 27.0 mg/kg/injection, schedule: Q01DX009 (ip), evaluated on day 45)?
Its T/C is 158 and 159 % of control.

What about the T/C (dose: 30.0 mg/kg/injection, schedule: Q01DX015 (ip)) of the same compound?
Its T/C is 142 % of control.

And the T/C (dose: 30.0 mg/kg/injection, schedule: Q02DX008 (ip))?
The T/C was 127 % of control.

And the T/C (dose: 31.0 mg/kg/injection, schedule: Q01DX015 (ip))?
The T/C was 140, 151, 152, 154, 183 % of control.

And the T/C (dose: 32.0 mg/kg/injection, schedule: Q01DX009 (ip))?
Its T/C is 94, 116, 134, 185 % of control.

And the survivor count (dose: 32.0 mg/kg/injection, schedule: Q01DX010 (ip))?
The survivor count was 6 of 6.

And the T/C (dose: 32.0 mg/kg/injection, schedule: Q01DX015 (ip), evaluated on day 5)?
The T/C was 103, 115, 121, 122, 129, 146, 151, 156, 160 % of control.

And the T/C (dose: 32.0 mg/kg/injection, schedule: Q01DX015 (ip), evaluated on day 35)?
The T/C was 129 % of control.

And the T/C (dose: 32.0 mg/kg/injection, schedule: Q01DX015 (ip), evaluated on day 45)?
The T/C was 121 % of control.

And the T/C (dose: 32.0 mg/kg/injection, schedule: Q01DX Z (ip))?
The T/C was 148 % of control.

What about the T/C (dose: 32.0 mg/kg/injection, schedule: Q## X032 (ip)) of the same compound?
Its T/C is 128 % of control.

What about the survivor count (dose: 32.0 mg/kg/injection, schedule: Q#A X Z (ip)) of the same compound?
Its survivor count is 6 of 6.

And the T/C (dose: 40.0 mg/kg/injection, schedule: Q12HX010 (ip))?
Its T/C is 131 % of control.

And the survivor count (dose: 40.0 mg/kg/injection, schedule: Q#A X034 (ip))?
The survivor count was 1 of 10.

And the T/C (dose: 41.0 mg/kg/injection, schedule: Q01DX009 (ip), evaluated on day 5)?
Its T/C is 107 and 116 % of control.

And the T/C (dose: 41.0 mg/kg/injection, schedule: Q01DX009 (ip), evaluated on day 45)?
Its T/C is 107 and 116 % of control.

What about the T/C (dose: 45.0 mg/kg/injection, schedule: Q## X004 (ip)) of the same compound?
The T/C was 140 % of control.

What about the T/C (dose: 47.0 mg/kg/injection, schedule: Q01DX015 (ip), evaluated on day 5) of the same compound?
Its T/C is 81, 95 (2×), 96, 98, 99 (3×), 103, 110, 112, 113, 115 % of control.

And the T/C (dose: 47.0 mg/kg/injection, schedule: Q01DX015 (ip), evaluated on day 35)?
Its T/C is 96 % of control.

What about the T/C (dose: 47.0 mg/kg/injection, schedule: Q01DX015 (ip), evaluated on day 45) of the same compound?
The T/C was 115 % of control.

What about the survivor count (dose: 47.0 mg/kg/injection, schedule: Q## X015 (ip)) of the same compound?
Its survivor count is 10 of 10.

And the T/C (dose: 48.0 mg/kg/injection, schedule: Q## X032 (ip))?
Its T/C is 132 and 144 % of control.

What about the T/C (dose: 50.0 mg/kg/injection, schedule: Q01DX001 (ip)) of the same compound?
The T/C was 127 % of control.

And the survivor count (dose: 50.0 mg/kg/injection, schedule: Q01DX005 (ip))?
Its survivor count is 5 of 6.

What about the T/C (dose: 52.0 mg/kg/injection, schedule: Q07DX003 (ip)) of the same compound?
Its T/C is 134 and 137 % of control.

What about the T/C (dose: 60.0 mg/kg/injection, schedule: Q01DX001 (ip)) of the same compound?
Its T/C is 133 % of control [7 of 10 alive].

What about the T/C (dose: 64.0 mg/kg/injection, schedule: Q01DX006 (iv)) of the same compound?
The T/C was 126 and 140 % of control.

What about the survivor count (dose: 64.0 mg/kg/injection, schedule: Q01DX010 (ip)) of the same compound?
The survivor count was 2 of 6.

What about the survivor count (dose: 64.0 mg/kg/injection, schedule: Q01DX Z (ip)) of the same compound?
The survivor count was 6 of 6.

What about the T/C (dose: 67.0 mg/kg/injection, schedule: Q02DX008 (ip)) of the same compound?
The T/C was 140 % of control.

What about the T/C (dose: 67.0 mg/kg/injection, schedule: Q## X004 (ip)) of the same compound?
Its T/C is 143 % of control.

And the T/C (dose: 72.0 mg/kg/injection, schedule: Q## X032 (ip))?
Its T/C is 145 % of control.

And the T/C (dose: 80.0 mg/kg/injection, schedule: Q12HX006 (ip))?
The T/C was 145 % of control.

What about the T/C (dose: 90.0 mg/kg/injection, schedule: Q01DX001 (ip)) of the same compound?
Its T/C is 125 % of control.

And the T/C (dose: 90.0 mg/kg/injection, schedule: Q03DX006 (ip))?
Its T/C is 139 % of control.

And the T/C (dose: 91.0 mg/kg/injection, schedule: Q01DX001 (ip))?
Its T/C is 126 % of control.

And the T/C (dose: 91.0 mg/kg/injection, schedule: Q## X001 (ip))?
Its T/C is 128 % of control.

What about the T/C (dose: 92.0 mg/kg/injection, schedule: Q01DX001 (ip)) of the same compound?
Its T/C is 127 % of control.

And the T/C (dose: 100.0 mg/kg/injection, schedule: Q01DX001 (ip))?
Its T/C is 125 (2×) and 137 % of control.

What about the survivor count (dose: 100.0 mg/kg/injection, schedule: Q01DX003 (ip)) of the same compound?
Its survivor count is 6 of 10.

What about the survivor count (dose: 100.0 mg/kg/injection, schedule: Q01DX005 (ip)) of the same compound?
The survivor count was 1 of 6.

And the survivor count (dose: 100.0 mg/kg/injection, schedule: Q01DX009 (ip))?
The survivor count was 5 of 6.

What about the survivor count (dose: 120.0 mg/kg/injection, schedule: Q01DX Z (oral)) of the same compound?
The survivor count was 3 of 6.

And the T/C (dose: 121.0 mg/kg/injection, schedule: Q01DX001 (ip), evaluated on day 46)?
Its T/C is 144 % of control.

And the T/C (dose: 121.0 mg/kg/injection, schedule: Q01DX001 (ip), run until all animals had died)?
The T/C was 141 % of control.

What about the T/C (dose: 121.0 mg/kg/injection, schedule: Q## X001 (ip)) of the same compound?
The T/C was 139 % of control.

What about the T/C (dose: 128.0 mg/kg/injection, schedule: Q01DX006 (iv)) of the same compound?
The T/C was 125 % of control.

What about the T/C [1] of the same compound?
Its T/C is 132 % of control.

What about the survivor count [1] of the same compound?
The survivor count was 6 of 10.

And the survivor count (dose: 167.0 mg/kg/injection, schedule: Q01DX001 (ip))?
Its survivor count is 4 of 10.

And the T/C [2]?
Its T/C is 139, 142, 145 [8 of 9 alive], 148 % of control [5 of 6 alive].

What about the survivor count [2] of the same compound?
Its survivor count is 1 of 10 and 6 of 10.

And the survivor count (dose: 200.0 mg/kg/injection, schedule: Q01DX005 (ip))?
Its survivor count is 0 of 6.

And the survivor count (dose: 200.0 mg/kg/injection, schedule: Q01DX009 (ip))?
The survivor count was 1 of 6.

What about the T/C (dose: 207.0 mg/kg/injection, schedule: Q01DX001 (ip)) of the same compound?
The T/C was 147 % of control [8 of 10 alive].

What about the survivor count (dose: 240.0 mg/kg/injection, schedule: Q01DX Z (oral)) of the same compound?
Its survivor count is 6 of 6.

And the T/C (dose: 274.0 mg/kg/injection, schedule: Q01DX001 (ip))?
Its T/C is 131 % of control [8 of 10 alive].

What about the T/C (dose: 300.0 mg/kg/injection, schedule: Q01DX001 (ip)) of the same compound?
The T/C was 142 % of control [9 of 10 alive].

And the T/C (dose: 300.0 mg/kg/injection, schedule: Q07DX003 (ip))?
The T/C was 131 % of control [5 of 6 alive].

And the survivor count (dose: 360.0 mg/kg/injection, schedule: Q03DX006 (ip))?
The survivor count was 1 of 6 and 2 of 6.

What about the T/C [3] of the same compound?
The T/C was 144 and 147 % of control.

And the survivor count [3]?
Its survivor count is 0 of 10 and 2 of 6.

What about the survivor count (dose: 400.0 mg/kg/injection, schedule: Q07DX003 (ip)) of the same compound?
The survivor count was 2 of 6.

What about the survivor count (dose: 420.0 mg/kg/injection, schedule: Q07DX003 (ip)) of the same compound?
The survivor count was 3 of 6.

What about the survivor count (dose: 450.0 mg/kg/injection, schedule: Q01DX001 (ip)) of the same compound?
Its survivor count is 1 of 10.

What about the survivor count (dose: 720.0 mg/kg/injection, schedule: Q03DX006 (ip)) of the same compound?
Its survivor count is 0 of 6.

And the survivor count (dose: 800.0 mg/kg/injection, schedule: Q01DX001 (ip))?
The survivor count was 6 of 6.

What about the survivor count (dose: 1600.0 mg/kg/injection, schedule: Q01DX001 (ip)) of the same compound?
Its survivor count is 6 of 6.
